From EP0626943B1, “BISTRIAZENES AS CHEMOTHERAPEUTIC AGENTS” (THE GOVERNMENT OF THE UNITED STATES OF AMERICA as …, priority 1991, dated 1993)
At least one compound was matched to its structure with a doubt left.

System: pBR322 DNA
Experiment: Supercoiled plasmid strand break assay
Format: biochemical

SMILES: c1cncc(N=NNCCNN=Nc2cccnc2)c1 [Example 1a, bis(3-pyridyltriazeno)ethane]
- ability to open, linearize, and shear the plasmid: essentially identical to that observed for 1,2-bis(methyl-triazeno)ethane
